PubChem BioAssay AID652243 – Drosophila RNAi Screening Center | 2013
The deposit covers about 24,000 reagents; this is an unselected part of those that have a named target and a result. Of all reagents, 246 (1%) got an active call. 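Plates not normalised; calls are printed but the firefly/Renilla ratio behind them is not deposited; fold cut for lowering reported inconsistently.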 Raw values vary from plate to plate and are shown uncorrected. A plus sign joins genes that one reagent is predicted to hit. Not stated in the record: the amount of reagent.

Aim: 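Fly genes required for human androgen receptor driven transcription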 (primary screen)
Cell system: Drosophila S2R+ cells
Reagent: long dsRNA against Drosophila genes
Duration: 72 h (48 h, then 24 h hormone)
Treatment: synthetic androgen R1881 at 10 nM for 24 h
Detection: 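Firefly light from an androgen-responsive reporter and Renilla control light per well, raw and unnormalised, for each of two replicates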
Scale: firefly reporter light: higher = more light from androgen-responsive reporter; Renilla control light: higher = more constitutive control signal (cell number, transfection)
Active means: 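Hit when the log firefly-to-Renilla ratio dropped or increased by a fixed fold versus the mean of GFP or LacZ controls across duplicate plates; lowering cut given as 1.5 and as 3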
Calls: active = hit: reporter lowered or raised; inactive = no hit

| target gene | DRSC id | firefly reporter light, replicate 1 | firefly reporter light, replicate 2 | Renilla control light, replicate 1 | Renilla control light, replicate 2 | call |
| --- | --- | --- | --- | --- | --- | --- |
| CG11356 | DRSC19401 | 3.69e5 | 3.78e5 | 2.42e6 | 2.44e6 | inactive |
| CG8578 | DRSC20114 | 97567 | 1.59e5 | 9.81e5 | 7.62e5 | inactive |
| Gga | DRSC18260 | 86106 | 91375 | 5.53e5 | 7.50e5 | inactive |
| Gga | DRSC27761 | 2.72e5 | 2.28e5 | 3.95e5 | 7.48e5 | inactive |
| Gr64a (Gustatory receptor 64a) | DRSC21713 | 5.36e5 | 5.41e5 | 2.53e6 | 3.07e6 | inactive |
| aph-1 (anterior pharynx defective 1) | DRSC00547 | 6.38e5 | 7.50e5 | 2.74e6 | 1.79e6 | inactive |
| m-cup (mann-cup) | DRSC14430 | 87427 | 83817 | 2.07e6 | 1.88e6 | inactive |
| CG43666 + CG43667 + CG43668 | DRSC03829 | 1.95e5 | 2.05e5 | 4.22e5 | 3.22e5 | inactive |
| CG43666 + CG43667 + CG43668 | DRSC04233 | 2.56e5 | 3.29e5 | 1.80e6 | 1.49e6 | inactive |
| Su(dx) (Suppressor of deltex) | DRSC00791 | 4.32e5 | 4.20e5 | 8.16e5 | 9.14e5 | inactive |
| Su(dx) (Suppressor of deltex) | DRSC26192 | 3.38e5 | 2.99e5 | 5.33e5 | 5.23e5 | inactive |
| Sdhaf3 (Succinate dehydrogenase assembly factor 3) | DRSC15020 | 2.38e5 | 1.97e5 | 2.21e6 | 2.51e6 | inactive |
| CG13455 | DRSC10002 | 1.05e5 | 97897 | 9.46e5 | 1.20e6 | inactive |
| CG31635 | DRSC02273 | 82230 | 93239 | 1.06e6 | 1.30e6 | inactive |
| CG30356 | DRSC05119 | 1.04e5 | 1.65e5 | 2.02e5 | 3.29e5 | inactive |
| AlkB | DRSC19115 | 3.18e5 | 3.36e5 | 2.25e5 | 2.73e5 | inactive |
| fws (four way stop) | DRSC02969 | 8.56e5 | 1.35e6 | 1.21e6 | 1.69e6 | inactive |
| fws (four way stop) | DRSC29678 | 1.96e5 | 2.38e5 | 5.73e5 | 5.73e5 | inactive |
| Mur2B (Mucin related 2B) | DRSC18545 | 3.31e5 | 3.16e5 | 4.70e6 | 3.76e6 | inactive |
| Mur2B (Mucin related 2B) | DRSC18546 | 2.71e5 | 3.01e5 | 4.15e6 | 3.93e6 | inactive |
| Dop1R1 (Dopamine 1-like receptor 1) | DRSC13021 | 99764 | 81312 | 1.82e5 | 2.39e5 | inactive |
| Dop1R1 (Dopamine 1-like receptor 1) | DRSC16652 | 51424 | 37189 | 7.41e5 | 7.45e5 | inactive |
| Dop1R1 (Dopamine 1-like receptor 1) | DRSC23514 | 3.48e5 | 3.34e5 | 4.82e5 | 5.73e5 | inactive |
| Sk2 (Sphingosine kinase 2) | DRSC08556 | 1.14e6 | 9.55e5 | 1.87e6 | 1.45e6 | inactive |
| Sk2 (Sphingosine kinase 2) | DRSC36986 | – | – | – | – | inactive |
| Sk2 (Sphingosine kinase 2) | DRSC36987 | – | – | – | – | inactive |
| lncRNA:CR31781 (long non-coding RNA:CR31781) | DRSC02431 | 8.34e5 | 5.87e5 | 2.50e6 | 2.83e6 | inactive |
| lncRNA:CR31781 (long non-coding RNA:CR31781) | DRSC02432 | 1.51e5 | 1.67e5 | 1.36e6 | 9.51e5 | inactive |
| whe (what else) | DRSC20537 | 2.50e5 | 2.83e5 | 5.17e5 | 3.73e5 | inactive |
| whe (what else) | DRSC26236 | 2.63e5 | 2.87e5 | 7.77e5 | 8.40e5 | inactive |
| Ror | DRSC03414 | 2.33e5 | 2.94e5 | 1.55e6 | 2.39e6 | inactive |
| Ror | DRSC36669 | – | – | – | – | inactive |
| Ror | DRSC36670 | – | – | – | – | inactive |
| Or83c (Odorant receptor 83c) | DRSC12359 | 89441 | 70908 | 1.93e6 | 1.43e6 | inactive |
| BobA | DRSC09889 | 3.24e5 | 1.84e5 | 3.37e6 | 2.32e6 | inactive |
| CG4161 | DRSC01930 | 1.55e5 | 1.63e5 | 1.62e6 | 1.11e6 | inactive |
| CG4161 | DRSC26020 | 3.06e5 | 2.98e5 | 7.90e5 | 8.31e5 | inactive |
| sordd2 + sordd1 | DRSC20136 | 59092 | 63863 | 4.76e5 | 5.54e5 | inactive |
| sordd2 + sordd1 | DRSC28444 | 3.16e5 | 4.77e5 | 4.55e5 | 6.61e5 | inactive |
| wts (warts) | DRSC22975 | 8.48e5 | 9.13e5 | 1.00e6 | 1.01e6 | inactive |
| wts (warts) | DRSC25766 | 5.91e5 | 4.33e5 | 8.54e5 | 5.16e5 | inactive |
| wts (warts) | DRSC36679 | – | – | – | – | inactive |
| wts (warts) | DRSC36680 | – | – | – | – | inactive |
